Reference: PubChem BioAssay AID743266 (National Center for Advancing Translational Sciences (NCATS), 2014)
Screen size: about 410,000 compounds; about 310 (0.076%) were called active. The inconclusive results got no clear call from the source; some entries with a clear call stand among them for comparison. The call rests on the fitted dose curve; in most records, active means well fitted activation curve with a large enough effect; inconclusive means small, poorly fitted or top-dose-only effect, or another doubt; inactive means no such curve, though single readings can be large or run the other way. Potencies of inconclusive entries are doubtful fits and often do not repeat.

The chains behind the UniProt entries cited, without tags or fusion partners. Where a name states a change or a piece, a line headed by the entry shows the natural chain unless it says otherwise.
UniProt Q03431: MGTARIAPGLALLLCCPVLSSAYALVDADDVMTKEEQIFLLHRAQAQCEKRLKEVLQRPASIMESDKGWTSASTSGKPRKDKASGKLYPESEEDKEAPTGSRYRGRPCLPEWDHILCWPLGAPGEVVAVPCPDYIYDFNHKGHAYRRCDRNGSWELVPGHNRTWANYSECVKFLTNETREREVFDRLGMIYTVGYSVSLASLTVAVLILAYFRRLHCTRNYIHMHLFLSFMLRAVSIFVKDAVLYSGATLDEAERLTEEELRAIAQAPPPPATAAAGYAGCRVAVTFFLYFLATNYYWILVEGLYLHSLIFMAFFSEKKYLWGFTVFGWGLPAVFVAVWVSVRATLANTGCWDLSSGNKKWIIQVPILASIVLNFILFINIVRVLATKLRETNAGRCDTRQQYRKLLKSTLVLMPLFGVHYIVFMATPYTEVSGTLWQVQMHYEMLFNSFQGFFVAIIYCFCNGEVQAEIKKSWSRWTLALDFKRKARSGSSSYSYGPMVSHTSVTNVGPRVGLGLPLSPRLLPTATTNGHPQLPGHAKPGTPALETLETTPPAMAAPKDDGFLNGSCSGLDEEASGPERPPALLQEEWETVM

Target: Parathyroid hormone/parathyroid hormone-related peptide receptor (Homo sapiens) (UniProt Q03431)
Test: qHTS for PTHR1 Agonists: Primary Screen; further: nearly all actives have a fitted effect of over 55% in size
Conditions: HEK293 GP2 PTHR1 cells, GloSensor cAMP luminescence, 1 h; activation: at 115 µM (top of the series) unless noted; series mostly up to 115 µM
Summary of the method: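 HEK-293-derived GP2 cells expressing PTHR1 and a GloSensor cAMP reporter, 3,000/well, plated overnight, given luciferin plus IBMX (each 0.5 mM as added) for 1 h at 37 °C, then compound for 1 h at 37 °C. Luminescence was read after 15 min at room temperature.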
Potency means the concentration at half of the fitted maximal effect.

Structure (SMILES)	activation	outcome	Potency
COCCOC(=O)c1c(C)oc2ccc(OCc3cc(C(=O)OC)oc3C)cc12	inactive: -49.6%		
Cc1nn2c(CN(C(=O)COc3ccccc3)c3ccccc3)nnc2c2ccccc12		inactive	
Nc1nnc(N2CCCCC2)s1			inconclusive: 79.4 µM [activator, single point]
CCOCCOc1cccc(C(=O)NC(C)c2ccc3ccccc3c2)c1 (stereo not drawn)			inconclusive: 11.2 µM [activator, single point]
O=C(O)c1cc2nc(-c3ccc(F)cc3)cc(C(F)(F)F)n2n1			inconclusive: 7.94 µM [activator, full curve, poor fit]
Cc1ccc(C)c(NC(=S)N2CCC(c3nc4ccccc4s3)CC2)c1			inconclusive: 28.2 µM [activator, partial curve, poor fit]
O=C(O)c1cccc(-n2cnc3cccnc32)c1			inconclusive: 141 µM [activator, single point]
CCSc1nc(N)c(C#N)c(-c2ccco2)c1C#N			inconclusive: 3.98 µM [activator, single point]
CCN(CC)c1ccc(NC(=O)CN(C)S(=O)(=O)c2cccc3nsnc23)c(C)c1		inactive	
COc1ccccc1CNc1nc2nc3c(c(=O)n2[nH]1)CCC3			inconclusive: 1.58 µM [activator, full curve, poor fit]
COc1ccccc1Cn1c(=S)[nH]c2cc(C(=O)NCCN(C)C)ccc2c1=O	inconclusive: 66% [activator]		
CCC1CCCCN1C(=O)COC(=O)COc1ccc(Br)cc1 (stereo not drawn)			inconclusive: 126 µM [activator, single point]
N/C(COc1cccc(Cl)c1)=N\NS(=O)(=O)c1ccccc1			inconclusive: 1.58 µM [activator, partial curve, poor fit]
CCOc1ccc(NC(=O)c2cccc(S(=O)(=O)NCc3cccnc3)c2)cc1		inactive	
CCn1c(N2CCN(S(=O)(=O)c3ccccc3C(F)(F)F)CC2)nc2ccccc21	inactive: -14.4%		
CCCCC(=O)Nc1nc(C)c(-c2csc(Nc3cc(OC)ccc3OC)n2)s1			inconclusive: 20 µM [activator, full curve, poor fit]
COc1ccc(C(=O)NC2CCSC2=O)cc1 (stereo not drawn)			inconclusive: 3.98 µM [activator, partial curve, poor fit]
CC1(C)CCC(=NNC(N)=S)CC1			inconclusive: 6.31 µM [activator, partial curve]
O=C(CSc1n[nH]c(-c2cccs2)n1)NCCc1ccccc1	inconclusive: -17.6% [activator]		
CCNc1nc(NCC)n2c(SCc3ccc(F)cc3)nnc2n1			inconclusive: 141 µM [activator, single point]
COc1ccc2sc(NC(C)=O)nc2c1	inconclusive: -60.8% [activator] [at 57.5 µM]		
COC1=CC(=Cc2c(N)n3nc(CC(=O)N4CCCCC4)sc3nc2=O)C=C(OC)C1=O		inactive	
CN(c1ccccc1)S(=O)(=O)c1nnc(NC(=O)c2ccco2)s1			inactive
COc1cc(C2c3c(-c4ccccc4O)n[nH]c3C(=O)N2Cc2ccco2)cc(OC)c1OC (stereo not drawn)	inactive: 1.76%		
COc1ccc(NC(=O)C2CCCN(S(=O)(=O)c3cccs3)C2)cc1OC (stereo not drawn)			inconclusive: 14.1 µM [activator, partial curve, poor fit]

Some of the entries so far, in CSV form:
Structure (SMILES),activation,outcome,Potency
CCOCCOc1cccc(C(=O)NC(C)c2ccc3ccccc3c2)c1 (stereo not drawn),,,"inconclusive: 11.2 µM [activator, single point]"
CCSc1nc(N)c(C#N)c(-c2ccco2)c1C#N,,,"inconclusive: 3.98 µM [activator, single point]"
CC1(C)CCC(=NNC(N)=S)CC1,,,"inconclusive: 6.31 µM [activator, partial curve]"
CN(c1ccccc1)S(=O)(=O)c1nnc(NC(=O)c2ccco2)s1,,,inactive
COc1cc(C2c3c(-c4ccccc4O)n[nH]c3C(=O)N2Cc2ccco2)cc(OC)c1OC (stereo not drawn),inactive: 1.76%,,

(next part)

Structure (SMILES)	activation	outcome	Potency
CCOC(=O)C1=C(C)NC(C)=C(C(=O)OCC)C1c1cccs1	inactive: -16%		
Oc1ccccc1/C=N/NC(=S)NC1CC2C=CC1C2 (stereo not drawn)	inactive: -11%		
COc1ccc(CNC(=O)C2CCN(S(=O)(=O)c3ccc4nc5c(c(C(=O)O)c4c3)CCCC5)CC2)cc1			inactive
O=C(c1cccs1)N1CCN=C1SCc1cccnc1			inconclusive: 44.7 µM [activator, single point]
CCc1nc2ccc(C(=O)NCc3ccc(N(C)C)cc3)cc2nc1CC			inconclusive: 22.4 µM [activator, partial curve, poor fit]
CC(Sc1ccsc1[N+](=O)[O-])C(=O)NCCc1ccc(Cl)cc1 (stereo not drawn)	inconclusive: 234% [activator] [at 57.5 µM]		
CN(C)CCNC(=O)CN1N=C(c2ccccc2)CCC1=O	inconclusive: 34.3% [activator]		
O=C(CSc1nnc2scc(-c3ccc(Cl)cc3)n12)NCc1ccc2c(c1)OCO2	inconclusive: -26.2% [activator]		
Cc1nnc(NC(=O)CSc2nnc(Cc3ccccc3)n2-c2ccccc2)s1	inconclusive: 26.4% [activator] [at 57.5 µM]		
COc1ccccc1CC(=O)NCC(c1ccco1)N1CCCCC1 (stereo not drawn)			inconclusive: 112 µM [activator, partial curve, poor fit]
CCNC(=O)C1CC(=O)N(Cc2ccc3c(c2)OCO3)C(=Nc2ccc(F)cc2)S1 (stereo not drawn)			inconclusive: 28.2 µM [activator, partial curve]
Cc1cc(C)c(S(=O)(=O)NCCSCc2ccco2)c(C)c1			inconclusive: 126 µM [activator, single point]
COc1ccc(-c2noc(CNS(=O)(=O)c3ccc(NC(C)=O)cc3)n2)cc1OC			inconclusive: 112 µM [activator, single point]
Nc1nc2ccc(C(=O)Nc3ccccc3)cc2s1			active: 3.98 µM
CCCc1cc(=O)[nH]c2nnc(SCC(=O)Nc3cc(C)on3)n12			inconclusive: 50.1 µM [activator, partial curve, poor fit]
CC(=O)c1c(N2CCN(C)CC2)nc(=S)n(Cc2ccccc2)c1C	inactive: -0.495%		
Cc1ccc(S(=O)(=O)NCc2ccc(C(=O)N3CCN(c4ccccn4)CC3)cc2)cc1	inactive: -28.8%		
CN(CC(=O)Nc1ccccc1Cl)C(=O)c1ccc(Cl)c(S(=O)(=O)N2CCCCCC2)c1	inactive: -31.1%		
COCCNC(=O)Cn1nc(-c2ccccc2C)ccc1=O			inconclusive: 22.4 µM [activator, single point]
CN(C(=O)c1c[nH]c2ccc(S(=O)(=O)Nc3cccc(C(F)(F)F)c3)cc2c1=O)C1CCCCC1		inactive	
COc1cc(CNC2CCCC2)cc(Br)c1OCC(=O)Nc1ccccc1C			inconclusive: 126 µM [activator, single point]
COc1cc(C(=O)OCC(=O)NCCC2=CCCCC2)cc(OC)c1OC		inactive	
C=CCn1c(SCC(=O)Nc2ccccc2C)nc(O)cc1=O	inconclusive: 54.5% [activator]		
COc1ccc(CNc2nc(-c3ccccc3)nn2C(=O)c2cccs2)cc1	inconclusive: 45.1% [activator] [at 57.5 µM]		
O=C(O)Cn1c(CC(=O)N2CCCC2)nc2ccccc21		inactive [at 57.5 µM]	

Structure (SMILES)	activation	outcome	Potency
CCN1CCN(c2nc3c(C)cccn3c(=O)c2/C=C(\C#N)S(=O)(=O)c2ccccc2)CC1	inconclusive: 16.2% [activator]		
Nc1nc(SCC(=O)NC2CCCC2)[nH]c(=O)c1NC(=O)c1cccs1			inconclusive: 141 µM [activator, single point]
CC(C)CNC(=O)[C@H](Cc1ccccc1)NC(=O)c1ccco1			inconclusive: 44.7 µM [activator, single point]
COc1ccc(NC(=O)Cn2cnc3ccc(S(=O)(=O)N4CCC(C)CC4)cc3c2=O)c(OC)c1			inconclusive: 17.8 µM [activator, partial curve]
CCOC(=O)c1c(N)nn(C(=O)c2ccccc2)c1-c1ccccc1	inconclusive: 53.9% [activator]		
Cc1ccc(N(CC(=O)NC(C)c2ccccc2)S(=O)(=O)c2c(C)n[nH]c2C)cc1 (stereo not drawn)	inconclusive: 130% [activator]		
Cc1ccccc1S(=O)Cc1ccc(C(=O)NC2CCN(Cc3ccccc3)CC2)o1 (stereo not drawn)		inactive	
NC(=O)C1CCCN1S(=O)(=O)c1ccc2ccccc2c1 (stereo not drawn)	inconclusive: 80.9% [activator]		
CC(=NNc1ccc2ccccc2n1)c1ccccc1O	inactive: -28.6%		
O=C(O)CCCCCNC(=O)c1ccncc1			inconclusive: 39.8 µM [activator, single point]
CCCCN(C)CCNC(=O)C1CCCN(S(=O)(=O)c2cccc3nsnc23)C1 (stereo not drawn)			inconclusive: 7.08 µM [activator, full curve, poor fit]
COc1ccc(-c2nc(-c3cc4cc(Br)ccc4oc3=O)cs2)cc1	inactive: -39.8%		
Cc1ccc(-c2nc(-c3ccccn3)no2)cc1	inactive: -4.93%		
COc1ccc(C(NC(=O)C2CCN(CCOc3ccc(Cl)cc3Cl)CC2)c2ccccc2C)cn1 (stereo not drawn)	inactive: -53%		
O=C(Nc1ccccc1)N1CCCC(c2nc(-c3ccc(F)cc3)no2)C1 (stereo not drawn)	inactive: -39.6%		
O=C(NNC(=O)C1CCCN(S(=O)(=O)c2cccc(F)c2)C1)C1CC1 (stereo not drawn)	inconclusive: 11.6% [activator]		
Cc1nn(Cc2cccc(C(=O)Nc3ccn(Cc4c(F)c(F)cc(F)c4F)n3)c2)c(C)c1[N+](=O)[O-]			inconclusive: 3.16 µM [activator, partial curve, poor fit]
CCOC(=O)C1CCN(c2ncnc3c2oc2ccc(Br)cc23)CC1			inconclusive: 63.1 µM [activator, single point]
O=C(Nc1ccc(Br)cc1)c1ccc(F)c(S(=O)(=O)NC2CCCCCC2)c1	inactive: -58.6%		
CC1=C(C(=O)N(C)C)CC(CC(=O)NCCN2CCOCC2)C(=O)N1Cc1ccc(C(C)(C)C)cc1 (stereo not drawn)	inconclusive: 6.45% [activator]		
COc1cc(NC(=O)Nc2cccc(Cl)c2)c(OC)cc1NC(=O)CN1CCCCC1		inactive [at 57.5 µM]	
Cc1cc(NC(=O)NC(=O)c2ccc(F)cc2F)n[nH]1	inconclusive: -45.4% [activator] [at 57.5 µM]		
COc1ccc(CCNC(=O)c2csc3c2CCCCC3)c(OC)c1	inconclusive: -92.8% [activator]		
